The values below come from PubChem BioAssay AID192 (DTP/NCI, 2004).

The list does not hold the whole screen: it gathers some chemical classes. Not every dose and run of a compound is shown. T/C is the treated group as % of the vehicle group. Some doses have a count of surviving animals in place of a T/C: the source holds a T/C of zero for them, seemingly a mark for toxic or unscored doses. Some survivor counts are full or nearly so, which does not show that the dose was tolerated: survival well below the control is almost never listed, so the zero probably covers shortened survival too. Survivors were counted at the toxicity check, usually on the fifth day, unless a day is given; later deaths do not show. Schedules are NCI's codes, read here as Q, the interval in days (D) or hours (H), X, the number of doses. For survival time, this PubChem deposit counts one and a half times the control or more as active, and values a quarter to a half above the control carry no call in these data; other NCI protocols may use other cut-offs. Some T/C values are followed by the survivors on the day toxicity was checked, most often the fifth; without a count or a note in brackets, all were alive then. Some entries hold several experiments; their values stand side by side, smallest first. Some T/C values are marked as having no survivor count here; that says nothing about deaths at the dose.

This assay concerns BDF1 mice, B16 melanoma ip, median survival T/C. The experiment in a line: NCI In Vivo Anticancer Drug Screen. Data for tumor model B16 Melanoma (intraperitoneal) in B6D2F1 (BDF1) mice. As to conditions: T/C endpoint: median survival time, higher T/C = longer survival. Put shortly: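 Survival or tumor size is measured after treatment of tumor-bearing mice and normalised to the vehicle-treated control group.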

The mark [1] stands for this setting: dose: 6.25 mg/kg/injection, schedule: Q01DX009 (ip), vehicle: saline.
Setting [2] is: dose: 12.5 mg/kg/injection, schedule: Q01DX009 (ip), vehicle: saline.
Setting [3] is: dose: 25.0 mg/kg/injection, schedule: Q01DX009 (ip), vehicle: saline with Tween-80.
Setting [4] is: dose: 25.0 mg/kg/injection, schedule: Q01DX009 (ip), vehicle: saline.
The mark [5] stands for this setting: dose: 50.0 mg/kg/injection, schedule: Q01DX009 (ip), vehicle: saline with Tween-80.
Setting [6] is: dose: 50.0 mg/kg/injection, schedule: Q01DX009 (ip), vehicle: saline.
Where [7] appears, read: dose: 50.0 mg/kg/injection, schedule: Q04DX003 (ip), vehicle: saline.
[8] abbreviates: dose: 50.0 mg/kg/injection, schedule: Q08DX002 (ip), vehicle: saline.
The mark [9] stands for this setting: dose: 100.0 mg/kg/injection, schedule: Q01DX001 (ip), vehicle: saline.
[10] abbreviates: dose: 100.0 mg/kg/injection, schedule: Q01DX009 (ip), vehicle: saline.

For `NC1CCCCC1.O=P(O)(N(CCCl)CCCl)N1CC1`, the T/C (dose: 0.8 mg/kg/injection, schedule: Q01DX009 (ip), vehicle: saline) was 91 % of control; the T/C (dose: 1.6 mg/kg/injection, schedule: Q01DX009 (ip), vehicle: saline) was 108 % of control; the T/C (dose: 3.12 mg/kg/injection, schedule: Q01DX009 (ip), vehicle: saline) is 103 % of control; the T/C (dose: 3.12 mg/kg/injection, schedule: Q04DX003 (ip), vehicle: saline) was 99 % of control; the T/C (dose: 3.12 mg/kg/injection, schedule: Q08DX002 (ip), vehicle: saline) was 111 % of control; the T/C (dose: 3.13 mg/kg/injection, schedule: Q01DX009 (ip), vehicle: saline) is 111 and 134 % of control [9 of 10 alive]. Moreover, the T/C is 104 % of control (dose: 3.13 mg/kg/injection, schedule: Q04DX009 (ip), vehicle: saline); 101 % of control (dose: 6.25 mg/kg/injection, schedule: Q01DX001 (ip), vehicle: saline); 107, 118, 179 % of control under setting [1]; 97 % of control (dose: 6.25 mg/kg/injection, schedule: Q04DX003 (ip), vehicle: saline); 101 % of control (dose: 6.25 mg/kg/injection, schedule: Q04DX009 (ip), vehicle: saline); 97 % of control (dose: 6.25 mg/kg/injection, schedule: Q08DX002 (ip), vehicle: saline). Also, the T/C reads like this: (dose: 12.5 mg/kg/injection, schedule: Q01DX001 (ip), vehicle: saline) 104 and 125 % of control; under setting [2], 106 and 117 % of control; (dose: 12.5 mg/kg/injection, schedule: Q04DX003 (ip), vehicle: saline) 107 and 155 % of control [9 of 10 alive]; (dose: 12.5 mg/kg/injection, schedule: Q04DX009 (ip), vehicle: saline) 112 % of control; (dose: 12.5 mg/kg/injection, schedule: Q08DX002 (ip), vehicle: saline) 101 and 153 % of control; (dose: 25.0 mg/kg/injection, schedule: Q01DX001 (ip), vehicle: saline) 106 and 132 % of control. The T/C is, setting by setting: under setting [3], 105 % of control; under setting [4], 107 % of control; (dose: 25.0 mg/kg/injection, schedule: Q04DX003 (ip), vehicle: saline) 96 and 186 % of control; (dose: 25.0 mg/kg/injection, schedule: Q04DX009 (ip), vehicle: saline) 104 % of control; (dose: 25.0 mg/kg/injection, schedule: Q08DX002 (ip), vehicle: saline) 105 and 193 % of control; (dose: 50.0 mg/kg/injection, schedule: Q01DX001 (ip), vehicle: saline) 102 and 157 % of control. For the same molecule, the T/C by setting is: under setting [5], 100 % of control; under setting [6], 111 % of control; under setting [7], 112 % of control; (dose: 50.0 mg/kg/injection, schedule: Q04DX009 (ip), vehicle: saline) 104 % of control; under setting [8], 105 % of control; under setting [9], 105 % of control. In addition, the T/C runs as follows: (dose: 100.0 mg/kg/injection, schedule: Q01DX009 (ip), vehicle: saline with Tween-80) 101 % of control; under setting [10], 99 % of control; (dose: 100.0 mg/kg/injection, schedule: Q04DX009 (ip), vehicle: saline) 98 % of control [9 of 10 alive]; (dose: 200.0 mg/kg/injection, schedule: Q01DX009 (ip), vehicle: saline) 119 % of control; (dose: 200.0 mg/kg/injection, schedule: Q04DX009 (ip), vehicle: saline) 111 % of control. Also, the survivor count by setting is: under setting [2], 8 of 10; under setting [4], 9 of 10; under setting [6], 5 of 10; under setting [7], 9 of 10; under setting [8], 10 of 10; under setting [9], 8 of 10. Besides, the survivor count is on record as 3 of 10 (dose: 100.0 mg/kg/injection, schedule: Q04DX003 (ip), vehicle: saline); 5 of 10 (dose: 100.0 mg/kg/injection, schedule: Q08DX002 (ip), vehicle: saline); 0 of 10 (dose: 200.0 mg/kg/injection, schedule: Q01DX001 (ip), vehicle: saline); 1 of 10 (dose: 200.0 mg/kg/injection, schedule: Q04DX003 (ip), vehicle: saline); 2 of 10 (dose: 200.0 mg/kg/injection, schedule: Q08DX002 (ip), vehicle: saline).

For `N/C(=N\[N+](=O)[O-])N(CCO[N+](=O)[O-])N=O`, the T/C is 138 % of control [survivor count not shown] (dose: 12.5 mg/kg/injection, schedule: Q01DX009 (ip), vehicle: saline with Tween-80) and 164 % of control [survivor count not shown] under setting [3].

Take `CC(=O)N(CCCl)CCCl`: the T/C is, setting by setting: under setting [1], 102 % of control; under setting [2], 100 % of control; under setting [4], 94 % of control; under setting [6], 100 % of control; under setting [10], 117 % of control.

For the molecule `ClCCNc1nc2ccc(Cl)cc2c2ccccc12`, the T/C is 89 % of control (dose: 0.08 mg/kg/injection, schedule: Q01DX009 (ip), vehicle: saline); 100 % of control (dose: 0.15 mg/kg/injection, schedule: Q01DX009 (ip), vehicle: saline); 97 % of control (dose: 0.3 mg/kg/injection, schedule: Q01DX009 (ip), vehicle: saline); 89 % of control (dose: 0.6 mg/kg/injection, schedule: Q01DX009 (ip), vehicle: saline); 97 % of control (dose: 1.25 mg/kg/injection, schedule: Q01DX009 (ip), vehicle: saline with Tween-80); 100 % of control (dose: 2.5 mg/kg/injection, schedule: Q01DX009 (ip), vehicle: saline with Tween-80). Besides, the T/C (dose: 5.0 mg/kg/injection, schedule: Q01DX009 (ip), vehicle: saline with Tween-80) was 97 % of control; the T/C (dose: 10.0 mg/kg/injection, schedule: Q01DX009 (ip), vehicle: saline with Tween-80) was 88 % of control; the T/C (dose: 5.0 micrograms/kg/injection, schedule: Q01DX009 (ip), vehicle: saline) is 97 % of control; the T/C (dose: 10.0 micrograms/kg/injection, schedule: Q01DX009 (ip), vehicle: saline) is 102 % of control; the T/C (dose: 20.0 micrograms/kg/injection, schedule: Q01DX009 (ip), vehicle: saline) was 97 % of control; the T/C (dose: 40.0 micrograms/kg/injection, schedule: Q01DX009 (ip), vehicle: saline) is 92 % of control.

For `O=C1c2cc([N+](=O)[O-])cc([N+](=O)[O-])c2-c2c1cc([N+](=O)[O-])cc2[N+](=O)[O-]`, the T/C was 97 % of control [survivor count not shown] (dose: 12.5 mg/kg/injection, schedule: Q04DX003 (ip), vehicle: saline with Tween-80); 97 % of control [survivor count not shown] under setting [3]; 102 % of control [survivor count not shown] (dose: 25.0 mg/kg/injection, schedule: Q04DX003 (ip), vehicle: saline with Tween-80); 114 % of control [survivor count not shown] under setting [5]; 97 % of control [survivor count not shown] (dose: 50.0 mg/kg/injection, schedule: Q04DX003 (ip), vehicle: saline with Tween-80).
